From US20080021105A1, “Medicine Capable of Inhibiting Activation of Transcription Factor Klf5” (THE UNIVERSITY OF TOKYO, priority 2004, published 2008)

Test system: vascular intimal hyperplasia resulted from vascular injury due to the cuff
Experiment: Mouse cuff-induced injury model, Example 3-2 (EVG staining)
Format: in vivo, C57BL6/N mice
Method: Vascular remodeling analysis was performed by using a cuff-induced injury model. Usefulness of this model in relation to vascular remodeling has been reported (Physiol. Genomics, 2, pp.13-30, 2000; Circulation, 104, pp.2716-2721; Circulation, 106, pp.847-853, 2002). For this experiment, 8-week old male C57BL6/N mice (10 animals/group) were used. In an amount of 100 or 200 mg/kg of NIK-333 or 5 or 10 mg/kg of ATRA suspended in soybean oil was orally given once daily every day from 7 days before placement of a cuff (placement of polyethylene tube around blood vessel) to the day before sacrifice. The control group were received soybean oil alone in the same manner. After the 7-day pretreatment, the right femoral artery was covered with PE50 (polyethylene tube 50, outer diameter: 0.965 mm, length: about 1.5 mm) as a cuff. The animals were sacrificed after 5 weeks. Blood was collected, and the cuff was removed under perfusion fixation via puncture of the left ventricle. For pathological evaluation, Elastica van Gieson (EVG) staining was performed. As a result, the ratio of I/M (intima/media) in vascular intimal hyperplasia resulted from vascular injury due to the cuff decreased in the NIK-333 treatment groups compared with the control group.

Compound: CC1=C(/C=C/C(C)=C/C=C/C(C)=C/C(=O)O)C(C)(C)CCC1 [ATRA, all-trans-retinoic acid]
- significance of I/M ratio (5 mg/kg): No significant difference
- significance of I/M ratio (10 mg/kg): No significant difference
